This is an account of results in the supplement of paper PMC12819154, “High-throughput peptide-centric local stability assay extends protein–ligand identification to membrane proteins, tissues and bacteria” (Nature Structural & Molecular Biology, 2025).

Protein sequences, listed by entry. Tags and fused reporters are not part of them. Lines headed by an entry give the natural chain unless they say otherwise; changes in a name come on top.
UniProt Q86U70: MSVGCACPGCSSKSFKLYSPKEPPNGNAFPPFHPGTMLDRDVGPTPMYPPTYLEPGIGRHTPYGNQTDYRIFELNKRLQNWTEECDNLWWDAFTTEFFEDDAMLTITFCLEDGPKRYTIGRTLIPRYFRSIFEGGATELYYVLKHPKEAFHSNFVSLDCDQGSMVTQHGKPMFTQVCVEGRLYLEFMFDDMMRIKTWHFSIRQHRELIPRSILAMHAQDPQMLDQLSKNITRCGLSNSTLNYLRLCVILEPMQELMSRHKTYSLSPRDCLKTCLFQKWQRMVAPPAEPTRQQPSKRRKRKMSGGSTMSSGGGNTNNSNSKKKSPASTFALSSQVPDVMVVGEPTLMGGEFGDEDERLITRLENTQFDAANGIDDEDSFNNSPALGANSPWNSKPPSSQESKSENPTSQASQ
UniProt Q7Z5Q1: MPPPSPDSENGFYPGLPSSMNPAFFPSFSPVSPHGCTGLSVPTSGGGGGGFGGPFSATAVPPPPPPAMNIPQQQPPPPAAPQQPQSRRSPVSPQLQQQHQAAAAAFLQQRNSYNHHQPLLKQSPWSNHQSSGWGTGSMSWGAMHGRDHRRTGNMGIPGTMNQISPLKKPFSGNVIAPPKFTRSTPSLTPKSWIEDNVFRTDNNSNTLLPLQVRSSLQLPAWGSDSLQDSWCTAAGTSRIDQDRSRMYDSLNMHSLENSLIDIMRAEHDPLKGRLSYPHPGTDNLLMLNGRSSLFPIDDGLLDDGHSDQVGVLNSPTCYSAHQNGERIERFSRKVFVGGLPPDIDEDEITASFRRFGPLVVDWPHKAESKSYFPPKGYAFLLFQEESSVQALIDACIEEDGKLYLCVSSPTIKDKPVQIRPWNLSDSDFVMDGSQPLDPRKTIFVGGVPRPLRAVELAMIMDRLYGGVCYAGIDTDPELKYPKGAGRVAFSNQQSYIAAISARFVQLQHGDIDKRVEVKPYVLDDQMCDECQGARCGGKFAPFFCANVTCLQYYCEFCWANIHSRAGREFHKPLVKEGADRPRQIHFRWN
UniProt Q86TB3: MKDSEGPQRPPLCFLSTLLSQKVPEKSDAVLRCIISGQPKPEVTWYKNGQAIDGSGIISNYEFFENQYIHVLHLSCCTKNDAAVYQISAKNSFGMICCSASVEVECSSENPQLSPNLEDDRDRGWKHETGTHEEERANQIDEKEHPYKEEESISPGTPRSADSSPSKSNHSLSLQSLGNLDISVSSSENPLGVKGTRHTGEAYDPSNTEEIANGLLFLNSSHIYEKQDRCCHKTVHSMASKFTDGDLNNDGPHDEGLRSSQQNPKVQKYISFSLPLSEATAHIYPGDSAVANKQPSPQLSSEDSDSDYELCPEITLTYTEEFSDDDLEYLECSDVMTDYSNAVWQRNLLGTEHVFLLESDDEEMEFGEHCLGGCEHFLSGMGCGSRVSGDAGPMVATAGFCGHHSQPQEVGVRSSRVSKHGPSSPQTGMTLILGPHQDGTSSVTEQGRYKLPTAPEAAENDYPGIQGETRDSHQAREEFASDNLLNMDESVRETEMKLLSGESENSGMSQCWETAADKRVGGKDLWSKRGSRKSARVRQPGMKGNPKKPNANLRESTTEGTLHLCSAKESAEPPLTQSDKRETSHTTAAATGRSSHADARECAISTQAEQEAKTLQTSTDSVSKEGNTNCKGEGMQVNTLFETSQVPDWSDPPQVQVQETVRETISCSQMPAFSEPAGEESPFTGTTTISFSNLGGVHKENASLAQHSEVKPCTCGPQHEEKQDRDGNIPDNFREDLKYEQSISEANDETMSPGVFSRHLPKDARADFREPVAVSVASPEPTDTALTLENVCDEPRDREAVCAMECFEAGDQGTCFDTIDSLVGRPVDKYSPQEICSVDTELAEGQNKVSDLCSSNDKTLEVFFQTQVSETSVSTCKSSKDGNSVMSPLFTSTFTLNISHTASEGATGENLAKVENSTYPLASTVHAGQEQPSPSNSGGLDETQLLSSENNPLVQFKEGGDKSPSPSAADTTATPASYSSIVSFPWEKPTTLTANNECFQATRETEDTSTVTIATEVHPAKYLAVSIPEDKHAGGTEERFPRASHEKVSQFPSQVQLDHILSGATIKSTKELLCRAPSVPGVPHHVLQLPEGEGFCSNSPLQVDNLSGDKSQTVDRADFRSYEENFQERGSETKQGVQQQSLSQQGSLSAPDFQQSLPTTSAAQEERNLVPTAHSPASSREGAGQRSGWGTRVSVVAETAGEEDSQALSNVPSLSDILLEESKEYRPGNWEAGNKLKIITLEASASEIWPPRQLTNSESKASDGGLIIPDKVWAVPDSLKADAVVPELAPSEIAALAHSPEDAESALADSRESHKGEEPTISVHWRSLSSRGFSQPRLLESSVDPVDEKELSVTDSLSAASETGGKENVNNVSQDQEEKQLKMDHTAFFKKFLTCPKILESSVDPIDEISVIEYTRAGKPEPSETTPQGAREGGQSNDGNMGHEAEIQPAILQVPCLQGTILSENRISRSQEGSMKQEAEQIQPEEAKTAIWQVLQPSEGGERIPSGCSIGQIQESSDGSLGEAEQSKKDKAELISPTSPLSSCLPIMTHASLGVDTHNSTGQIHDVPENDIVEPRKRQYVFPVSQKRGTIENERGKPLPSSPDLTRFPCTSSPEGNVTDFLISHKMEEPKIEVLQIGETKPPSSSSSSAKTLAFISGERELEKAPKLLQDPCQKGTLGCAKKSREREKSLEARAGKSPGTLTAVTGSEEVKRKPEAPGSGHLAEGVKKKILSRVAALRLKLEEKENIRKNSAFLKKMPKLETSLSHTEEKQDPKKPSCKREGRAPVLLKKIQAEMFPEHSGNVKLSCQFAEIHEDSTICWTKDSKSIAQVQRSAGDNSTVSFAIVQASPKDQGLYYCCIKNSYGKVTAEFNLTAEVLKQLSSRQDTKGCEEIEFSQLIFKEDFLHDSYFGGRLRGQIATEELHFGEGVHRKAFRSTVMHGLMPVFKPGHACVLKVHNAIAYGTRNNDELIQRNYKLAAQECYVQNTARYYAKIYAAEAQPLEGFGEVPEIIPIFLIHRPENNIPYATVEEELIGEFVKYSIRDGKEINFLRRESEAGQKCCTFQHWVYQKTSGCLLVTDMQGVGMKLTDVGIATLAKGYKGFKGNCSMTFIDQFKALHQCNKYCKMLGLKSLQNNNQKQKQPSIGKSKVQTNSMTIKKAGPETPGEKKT
UniProt Q6ZN55: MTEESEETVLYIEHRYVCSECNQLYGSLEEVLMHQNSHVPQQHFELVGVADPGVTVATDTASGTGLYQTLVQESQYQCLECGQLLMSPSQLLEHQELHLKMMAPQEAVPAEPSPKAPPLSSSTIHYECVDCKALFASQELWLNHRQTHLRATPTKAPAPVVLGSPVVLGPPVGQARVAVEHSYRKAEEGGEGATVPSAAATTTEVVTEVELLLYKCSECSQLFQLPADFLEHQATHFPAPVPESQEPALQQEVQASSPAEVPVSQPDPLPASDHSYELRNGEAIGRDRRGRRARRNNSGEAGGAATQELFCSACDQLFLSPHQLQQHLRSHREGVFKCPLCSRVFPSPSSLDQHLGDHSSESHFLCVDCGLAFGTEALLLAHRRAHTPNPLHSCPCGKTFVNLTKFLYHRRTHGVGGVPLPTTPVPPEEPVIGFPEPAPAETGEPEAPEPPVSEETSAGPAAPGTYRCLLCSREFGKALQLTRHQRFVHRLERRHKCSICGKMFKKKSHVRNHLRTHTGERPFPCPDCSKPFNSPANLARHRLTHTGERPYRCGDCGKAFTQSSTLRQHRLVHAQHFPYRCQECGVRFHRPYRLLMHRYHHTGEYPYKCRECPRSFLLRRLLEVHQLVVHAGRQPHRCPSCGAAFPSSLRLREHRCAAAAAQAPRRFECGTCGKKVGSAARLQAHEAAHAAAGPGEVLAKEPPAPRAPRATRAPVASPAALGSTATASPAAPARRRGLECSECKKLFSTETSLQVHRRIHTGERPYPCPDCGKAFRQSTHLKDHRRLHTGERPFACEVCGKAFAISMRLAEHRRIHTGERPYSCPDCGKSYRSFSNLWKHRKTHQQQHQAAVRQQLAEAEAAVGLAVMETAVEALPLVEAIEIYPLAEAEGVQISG
UniProt Q6ZUT1: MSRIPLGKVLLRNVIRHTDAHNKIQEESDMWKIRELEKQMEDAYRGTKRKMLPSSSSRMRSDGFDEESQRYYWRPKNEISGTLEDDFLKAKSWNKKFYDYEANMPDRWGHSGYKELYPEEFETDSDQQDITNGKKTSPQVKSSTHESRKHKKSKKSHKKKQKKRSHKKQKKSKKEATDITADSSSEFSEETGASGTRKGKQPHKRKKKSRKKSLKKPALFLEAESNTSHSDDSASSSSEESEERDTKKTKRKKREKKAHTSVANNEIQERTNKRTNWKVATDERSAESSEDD
UniProt Q76N32: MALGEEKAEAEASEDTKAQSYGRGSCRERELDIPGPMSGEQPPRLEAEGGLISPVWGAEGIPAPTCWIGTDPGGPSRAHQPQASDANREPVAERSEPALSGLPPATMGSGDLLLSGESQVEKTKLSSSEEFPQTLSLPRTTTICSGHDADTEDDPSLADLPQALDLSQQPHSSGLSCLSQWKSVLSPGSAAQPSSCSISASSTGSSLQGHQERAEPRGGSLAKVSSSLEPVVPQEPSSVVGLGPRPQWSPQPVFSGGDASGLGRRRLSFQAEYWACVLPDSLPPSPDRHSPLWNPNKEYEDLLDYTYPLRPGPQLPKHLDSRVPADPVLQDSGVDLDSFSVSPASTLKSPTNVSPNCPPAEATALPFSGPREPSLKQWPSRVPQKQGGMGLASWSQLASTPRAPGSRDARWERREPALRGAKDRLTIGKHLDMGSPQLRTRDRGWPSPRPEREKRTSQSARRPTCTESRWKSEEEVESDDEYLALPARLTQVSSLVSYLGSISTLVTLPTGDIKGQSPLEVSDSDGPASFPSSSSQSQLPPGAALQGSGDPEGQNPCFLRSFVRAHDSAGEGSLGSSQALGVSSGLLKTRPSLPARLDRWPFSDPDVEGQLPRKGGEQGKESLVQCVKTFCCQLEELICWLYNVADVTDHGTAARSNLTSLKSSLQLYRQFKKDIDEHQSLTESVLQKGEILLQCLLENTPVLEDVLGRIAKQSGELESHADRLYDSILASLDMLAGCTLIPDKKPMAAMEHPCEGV
UniProt Q7Z7M9: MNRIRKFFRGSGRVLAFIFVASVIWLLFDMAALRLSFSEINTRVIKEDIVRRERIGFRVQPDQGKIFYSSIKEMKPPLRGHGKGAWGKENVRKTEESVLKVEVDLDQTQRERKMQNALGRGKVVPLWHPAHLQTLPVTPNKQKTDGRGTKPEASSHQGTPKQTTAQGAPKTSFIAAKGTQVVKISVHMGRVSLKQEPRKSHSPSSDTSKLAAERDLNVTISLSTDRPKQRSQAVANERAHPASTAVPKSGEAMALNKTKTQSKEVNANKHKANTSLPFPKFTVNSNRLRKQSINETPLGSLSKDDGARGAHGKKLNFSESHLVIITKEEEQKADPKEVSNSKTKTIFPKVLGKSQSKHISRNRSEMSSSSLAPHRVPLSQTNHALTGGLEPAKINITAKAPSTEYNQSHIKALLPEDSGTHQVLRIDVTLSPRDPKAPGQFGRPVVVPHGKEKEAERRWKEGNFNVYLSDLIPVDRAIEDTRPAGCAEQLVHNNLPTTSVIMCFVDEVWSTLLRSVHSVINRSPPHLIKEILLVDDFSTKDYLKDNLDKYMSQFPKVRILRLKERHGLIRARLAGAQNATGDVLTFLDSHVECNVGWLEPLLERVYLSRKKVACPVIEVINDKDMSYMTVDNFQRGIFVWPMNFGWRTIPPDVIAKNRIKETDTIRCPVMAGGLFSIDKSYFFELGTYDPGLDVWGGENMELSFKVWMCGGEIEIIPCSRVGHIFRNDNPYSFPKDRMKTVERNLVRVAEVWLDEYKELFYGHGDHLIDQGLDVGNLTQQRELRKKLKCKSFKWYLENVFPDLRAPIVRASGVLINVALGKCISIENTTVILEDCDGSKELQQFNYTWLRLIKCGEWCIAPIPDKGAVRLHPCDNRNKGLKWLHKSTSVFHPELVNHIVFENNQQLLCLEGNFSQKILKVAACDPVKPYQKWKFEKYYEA

This is one part of the list. Small differences around the control level are noise.

Compound in this test: CN[C@@H]1C[C@H]2O[C@@](C)([C@@H]1OC)n1c3ccccc3c3c4c(c5c6ccccc6n2c5c31)C(=O)NC4 [staurosporine]
Nature of the test: log2 fold change of tryptic peptide abundance, ligand vs vehicle (limited proteolysis) (log2 ratio); higher = more trypsin-susceptible (destabilized). The following applies: ligand concentration: 20 uM; sample: K562 cleared lysate; digestion: 4 min, 22 C (HT-PELSA RT4min, Orbitrap Astral).
As to “LDB1 (peptide sequence: KMSGGSTMSSGGGNTNNSNSK, peptide start residue: 300) (UniProt Q86U70)”, the log2 fold change turned out to be 0.901.

Turning to “CPEB2 (peptide sequence: EFHKPLVK, peptide start residue: 708) (UniProt Q7Z5Q1)”, the log2 fold change amounted to 0.473.

Regarding “UniProt Q86TB3 (peptide sequence: EGAGQRSGWGTR, peptide start residue: 1181)”, the log2 fold change is -0.109.

With “IRF2BP2 (peptide sequence: DANQVHSTTRR, peptide start residue: 443) (UniProt Q7Z5L9)”, the log2 fold change stood at 0.44.

Take “ZNF574 (peptide sequence: RIHTGERPYPCPDCGK, peptide start residue: 758) (UniProt Q6ZN55)”: the log2 fold change was -0.323.

Take “UniProt Q6ZUT1 (peptide sequence: SDGFDEESQR, peptide start residue: 61)”: the log2 fold change was -0.2.

Consider “CEP68 (peptide sequence: AHQPQASDANREPVAER, peptide start residue: 78) (UniProt Q76N32)”, for which the log2 fold change is -0.0618.

On to “GALNT5 (peptide sequence: APGQFGRPVVVPHGK, peptide start residue: 437) (UniProt Q7Z7M9)”, for which the log2 fold change turned out to be 0.697.
